Like-named read-outs stand apart in the source and are kept apart here. Results are given in words; binding and its absence hold for the method and conditions named. In cells and extracts the contact can be indirect. A yes stands for co-enrichment or nearness to the bait. Other partners may have been found. For part of these data: Where a sequence is shown, tags or fusion partners need not be part of it.
Assays:
[1] = molecular target: phosphatidylinositol phosphate 5-phosphatase, V5-tagged (T. brucei) (UniProt Q385E2); assay: affinity purification with mass spectrometry; anti-V5 mAb on protein G magnetic beads, lysate of DSS cross-linked T. brucei bloodstream forms expressing PIP5Pase-V5, wash with 300 mM NaCl, 0.1% NP40; proteins found in the immunoprecipitate (enrichment against non-tagged cells; network of direct and counterpart cross-links)
[2] = molecular target: phosphatidylinositol phosphate 5-phosphatase, V5-tagged (T. brucei) (UniProt Q385E2); assay: as above; remark: listed apart in the source

Sequences of proteins named here, by UniProt entry; tags and fusion partners are left off. A change or cut given only in a name is not applied to a line headed by its entry.
UniProt Q385E2: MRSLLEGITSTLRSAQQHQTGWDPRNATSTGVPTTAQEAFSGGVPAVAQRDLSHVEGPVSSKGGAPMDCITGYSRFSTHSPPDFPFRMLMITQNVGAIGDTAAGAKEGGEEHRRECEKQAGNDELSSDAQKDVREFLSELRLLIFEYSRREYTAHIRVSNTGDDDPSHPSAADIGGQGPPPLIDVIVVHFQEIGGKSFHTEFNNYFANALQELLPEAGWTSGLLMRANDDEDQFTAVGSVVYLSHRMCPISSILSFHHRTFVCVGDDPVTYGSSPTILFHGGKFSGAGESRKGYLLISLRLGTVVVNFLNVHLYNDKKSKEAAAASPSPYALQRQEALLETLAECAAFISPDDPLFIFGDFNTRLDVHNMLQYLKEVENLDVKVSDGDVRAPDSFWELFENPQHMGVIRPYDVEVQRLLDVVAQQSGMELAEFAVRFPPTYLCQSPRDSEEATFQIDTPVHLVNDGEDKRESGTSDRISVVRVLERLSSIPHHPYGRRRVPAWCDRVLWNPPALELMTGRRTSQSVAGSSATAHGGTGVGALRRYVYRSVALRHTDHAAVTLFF
UniProt Q4GZF2: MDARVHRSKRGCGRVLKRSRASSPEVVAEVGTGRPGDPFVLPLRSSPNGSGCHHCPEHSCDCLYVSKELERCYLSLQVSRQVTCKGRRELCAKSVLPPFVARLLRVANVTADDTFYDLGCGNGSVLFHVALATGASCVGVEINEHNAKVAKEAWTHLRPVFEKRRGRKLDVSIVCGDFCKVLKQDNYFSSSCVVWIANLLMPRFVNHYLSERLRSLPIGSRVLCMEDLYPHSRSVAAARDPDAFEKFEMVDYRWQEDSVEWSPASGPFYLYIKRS

| binding [1] | binding [2] | Molecule |
| --- | --- | --- |
| binds |  | histone methyltransferase DOT1B (from UniProt Q4GZF2 1-275) (enzyme) |
|  | binds | histone acetyltransferase (HAT1) (enzyme, UniProt Q8I9K8 1-466) MVMFEVRQKVYATLHETFHAAIIQEVAHDAHTGQLLYYVHYVEQDSRMDRWLPGSALRERRQGRQADKQQVSKPTGCGITTRGQSRLVAEQEESGSNGATAGSAAKRGATPNCDKVTTTRTRKESSFFYRPKNVQRICMGPYEVETWYFSPYHLARPQVQQGFKQNAEYFTGDMELQLRQDSRDNALRSSVAFTSFVLHICPFCLQPFSEHEDVLRHVRLVCSRFPPGNEIYRDPIRNLTVVEIDGVAEPTFCEHLALLSKLFLDHKALDHDMTPFLFYVLCSIQPHGLEVLGYFSKEKTTPEMYNLSCILVLPQFQSRGIGRFLIELSYELSRREGKIGSPEKPLSDLGEKLYLGYWGDTIVSTLARAIEESHCVTLDYLVQATFMSEADVMRTLQYLKLIDGTQIVVSEESIERCLSKRVQRERSGQNYIFYPHLLSWSPHMYNEVVEQDVAPPVYDLRRAEKV |
|  | binds | TRF (protein, UniProt Q4VHG6 1-382) MYCHAGVPSTSPSPTDFSEVHKILCGHIKQGNNFSVAAAVALEPLHGSSEFWRTCGYRSGIVSALLASSLGVQRETDQLSHLEPMTVADVYAMFRHVVDENAHLRQIIARLESGECDPDDGSGGITSSAERLRSLISEGYDALTGRSSPCMGEDDCGQTPGKWKTCSSGAAGTKRRRDSPEVTERAYVRPESPVPASETLSPAANSGDDTVDEAEQNNALDVLEQLPALPGTTRTVSSFDAVGEMVNRGAGGPSLHPTNPSEFRVGSERGSTIETHSSSELSNFANVGVGTSSGKQKRYKFSASEDEAIIKGLARFTKGQQRFQQIYYAYRSVWHPARTVSQLYDHWRGTLRYKVIQQQGYRGKNSVAARSPEKASNMENNE |

From article PMC12749359, “Chromosome compartment assembly is essential for subtelomeric gene silencing in trypanosomes” (Nature Communications, 2025)
